This experiment has as its target Kap60-3FLAG (S. cerevisiae) (UniProt Q02821). The experiment in a line: co-IP.

The chains behind the UniProt entries cited, without tags or fusion partners.
UniProt Q02821: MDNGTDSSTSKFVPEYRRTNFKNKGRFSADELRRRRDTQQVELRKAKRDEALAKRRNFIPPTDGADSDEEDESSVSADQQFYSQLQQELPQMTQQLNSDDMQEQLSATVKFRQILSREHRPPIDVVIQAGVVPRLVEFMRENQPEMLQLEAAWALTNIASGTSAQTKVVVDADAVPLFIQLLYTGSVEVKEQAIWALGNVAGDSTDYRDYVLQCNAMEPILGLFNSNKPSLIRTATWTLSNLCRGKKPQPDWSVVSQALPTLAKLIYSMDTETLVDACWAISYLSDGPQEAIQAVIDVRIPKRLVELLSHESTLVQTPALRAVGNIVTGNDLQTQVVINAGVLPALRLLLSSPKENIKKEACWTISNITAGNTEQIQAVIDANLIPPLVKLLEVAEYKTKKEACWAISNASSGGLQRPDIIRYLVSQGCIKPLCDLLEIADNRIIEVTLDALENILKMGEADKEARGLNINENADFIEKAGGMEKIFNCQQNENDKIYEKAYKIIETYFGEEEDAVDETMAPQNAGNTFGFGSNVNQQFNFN

These are yes or no findings as the source states them, for the method shown. Binding seen in cells or lysates may run through a third protein. Some results given as binding are weak or reduced against the parent protein; the word gives no strength.

B1: Stu2^WT-3V5 (protein, UniProt P46675 1-888)
chain: MSGEEEVDYTTLPLEERLTYKLWKARLEAYKELNQLFRNSVGDISRDDNIQIYWRDPTLFAQYITDSNVVAQEQAIVALNSLIDAFASSSLKNAHNITLISTWTPLLVEKGLTSSRATTKTQSMSCILSLCGLDTSITQSVELVIPFFEKKLPKLIAAAANCVYELMAAFGLTNVNVQTFLPELLKHVPQLAGHGDRNVRSQTMNLIVEIYKVTGNNSDLLEEILFKKLKPIQVKDLHKLFAKVGDEPSSSKMLFEWEKRELEKKRSQEEEARKRKSILSNDEGEYQIDKDGDTLMGMETDMPPSKQQSGVQIDTFSMLPEETILDKLPKDFQERITSSKWKDRVEALEEFWDSVLSQTKKLKSTSQNYSNLLGIYGHIIQKDANIQAVALAAQSVELICDKLKTPGFSKDYVSLVFTPLLDRTKEKKPSVIEAIRKALLTICKYYDPLASSGRNEDMLKDILEHMKHKTPQIRMECTQLFNASMKEEKDGYSTLQRYLKDEVVPIVIQIVNDTQPAIRTIGFESFAILIKIFGMNTFVKTLEHLDNLKRKKIEETVKTLPNFSIASGSTHSTIETNKQTGPMENKFLLKKSSVLPSKRVASSPLRNDNKSKVNPIGSVASASKPSMVAANNKSRVLLTSKSLATPKNVVANSTDKNEKLIEEYKYRLQKLQNDEMIWTKERQSLLEKMNNTENYKIEMIKENEMLREQLKEAQSKLNEKNIQLRSKEIDVNKLSDRVLSLENELRNMEIELDRNKKRNDTNLQSMGTISSYSIPSSTVSSNYGVKSLSSALPFKEEEDVRRKEDVNYERRSSESIGDLPHRVNSLNIRPYRKNGTGVSSVSDDLDIDFNDSFASEESYKRAAAVTSTLKARIEKMKAKSRREGTTRT
Take B1: the binding result is “binds”.

These data come from paper doi:10.1101/2022.09.09.507218.
